{"source": "the RNAGym collection of RNA variant scans (doi:10.1126/science.aae0568)", "parents": {"B1": {"name": "tRNA (parent)", "chain": "GUUCCGUUGGCGUAAUGGUAACGCGUCUCCCUCCUAAGGAGAAGACUGCGGGUUCGAGUCCCGUACGGAACG"}}, "note": "This sample is rich in variants without activity.", "data": [{"variants_of": "B1", "assay": "yeast fitness relative to wild type (ratio to wild type); higher = fitter; tRNA-Arg(CCU), competitive growth, 37 C, YPD", "outline": "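Gene amplicons from the start population and from each of six end populations were read by 100-nucleotide paired-end sequencing. Those end populations came from pooled Saccharomyces cerevisiae strains carrying tRNA-Arg(CCU) gene variants at the native locus, competed in YPD at 37°C for 24 hours. Fitness relative to wild type was worked out from changes in genotype frequencies. Genotypes needed ≥ 100 starting reads, and estimates < 0.5 were set to 0.5.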", "values": [{"variant": "GUUCUGUUGGCGUAAUGGUAACGCGUCUCCCUUCUCAGGAGAAGACUGCGGGUUCGAGUCACGUACGCAACG", "note": "[C5U C33U A36C C61A G68C]", "yeast fitness": "≤ 0.5"}, {"variant": "GUUCCGUUAGCGUAAUGGUGACGCGUGUCCCUCCUAAGGGGAAGACUGCGGGUUCGAGUCCCGUACGGAACG", "note": "[G9A A20G C27G A40G]", "yeast fitness": "≤ 0.5"}, {"variant": "GUUCCGUUGGCGUAAUGGUAACGCGUCACCCUCCUACGGACAAGACUGCGGGUUCGAGUCCCGUACGGAACG", "note": "[U28A A37C G41C]", "yeast fitness": "≤ 0.5"}, {"variant": "GUUCCGUUGGCGUUAUAGUAACCCGUCUUCCUCGUAAGGAGAAGCCUGCGGGUGCAAGUCCCGUACGGAACG", "note": "[A14U G17A G23C C29U C34G A45C U54G G56A]", "yeast fitness": "≤ 0.5"}, {"variant": "GUUACGUUGGCGUAAUGGUAACGCGUCUCCCUCCUCAGGAGAAGACUGUGGGUUCGAGUCCCGUACGGAACG", "note": "[C4A A36C C49U]", "yeast fitness": "≤ 0.5"}, {"variant": "GUGUCGUUGGCGUAAUGGUAACGCGUCUCCCUCCAAAGGAGAAGACUGCGGGUUCGGGUCCCGUACGGAACG", "note": "[U3G C4U U35A A57G]", "yeast fitness": "≤ 0.5"}, {"variant": "GGUCCGUUGGCGUAAUGGUUACGCGUCUCCCUCCUAAGGAGAUGACUGCGGGUUCGAGUCCCAUACGGAACG", "note": "[U2G A20U A43U G63A]", "yeast fitness": "≤ 0.5"}, {"variant": "GGUACGUUGGCGUAAUGGUAACGCGUCUCCCUCCUAUGGAGAAGACUGCGGGUUCGAGUCCCGUACGGAACG", "note": "[U2G C4A A37U]", "yeast fitness": "≤ 0.5"}, {"variant": "GUUCCGUUGGCGUAAUGGUAACGCGUUUCCCUCCUAAGCAGGAGACUGCGGGUUCGAGUCCCGUACGGAACG", "note": "[C27U G39C A42G]", "yeast fitness": "≤ 0.5"}, {"variant": "GUUCCGUUGGCGUAAUGGUAACGCGUUUCUCUCCUAAGGAGCAGACUGCGGGUUCGAGUCCCGUGCGGAACG", "note": "[C27U C30U A42C A65G]", "yeast fitness": "≤ 0.5"}, {"variant": "GUUUCGUUGGCGUACUGGUAACGCGUCUCCCUCCUAAGGAGAAGACUGCGGGUUCGAGUCCCGUACGGAUCG", "note": "[C4U A15C A70U]", "yeast fitness": 0.573}, {"variant": "GUUCCCUUGGCGUAAUGCUGAUGCGUCUCCCUCGUUAGGAGAAGACUGCGGGUUCGCGUCCCGUAUGGAACG", "note": "[G6C G18C A20G C22U C34G A36U A57C C66U]", "yeast fitness": "≤ 0.5"}, {"variant": "GUUCCGUUGGCAGAUUGGUAACGAGUCUACCUGCUAAGGAGAAGACUGCGGCUUAGAGUCCCGUACGGAACG", "note": "[G12A U13G A15U C24A C29A C33G G52C C55A]", "yeast fitness": "≤ 0.5"}, {"variant": "GUUCCGUUGGCGUUAUGAUAACGCGUCUCCCUCCUAAGGAGAAGACUGCGGGUUCGAGUCCCGUACGGAACG", "note": "[A14U G18A]", "yeast fitness": "≤ 0.5"}, {"variant": "GUUCCGUUGGCGUAAUCGUAACGCGGCUCCCUCCUAAGCUGAAGACUGCGGGUUCGAGUCCCGUACGGAUCG", "note": "[G17C U26G G39C A40U A70U]", "yeast fitness": "≤ 0.5"}, {"variant": "GUUCUGUAGGCGUAAUGGUAACGCGUCUCCCUCCUAACGAGCAGACUGCGGGUUCGAGUCCCGUACGGAACG", "note": "[C5U U8A G38C A42C]", "yeast fitness": "≤ 0.5"}, {"variant": "GUUCCGUUGGCGUAAUGGUAACGCAUCUCCAUGCUAAGGAGAAGAUUGCGGGUUCGAGUCCCGUACGGAACG", "note": "[G25A C31A C33G C46U]", "yeast fitness": "≤ 0.5"}, {"variant": "GUUCCCUUGGCGUAAUGGUAACGCGUCUCCCUCCUAAGGAGAAGAGUGCGGGUUCGGGUCCUGUAUGGAACG", "note": "[G6C C46G A57G C62U C66U]", "yeast fitness": "≤ 0.5"}, {"variant": "GGUCCGUUGGCGUAAUGGUUAAGCGUCUCCCUCCUAAGGAGAAGACUGCGGGUUCGAGUCCCGUACGGAACG", "note": "[U2G A20U C22A]", "yeast fitness": "≤ 0.5"}, {"variant": "GUUUCGUUGGCGUAAUGGUAACGCGUCUCCCUGCUAAGGAGAAGACUGAGGGUUCGAGUCCCGUACGGUACG", "note": "[C4U C33G C49A A69U]", "yeast fitness": "≤ 0.5"}, {"variant": "GGUCCGUUGGGGUAAUGGUAACGCGUCUCCCUCCUAAGGAGAAGACUGCGGGUUCGAGUCCCUUACGGAACG", "note": "[U2G C11G G63U]", "yeast fitness": "≤ 0.5"}, {"variant": "GUUCCGUUCGCGUAAUGGCAACGCGUCUCCCUCCUAAGGAGAAGACUACGGGUUCGAGUCCCGCACGGAACG", "note": "[G9C U19C G48A U64C]", "yeast fitness": 0.609}, {"variant": "GUUCCGUUGGCGUAAUGGUAACGGGUCUCCCUCCUAAGGAGGUGACAGCGGGUUCGAGUCCCGUACGGAACG", "note": "[C24G A42G A43U U47A]", "yeast fitness": 0.635}, {"variant": "GUUCCGUUGGCGUAAUGGUAACGCGUCACCCUCCUAAGGAGAAGACUGCGAGUUCGAGUCCCGUACGGAUCG", "note": "[U28A G51A A70U]", "yeast fitness": "≤ 0.5"}, {"variant": "GUUGCGUUGGCGUAAUGGUAACGCGUCUCCCUCCUAAGGAUAAGACUGCGGGUUCGAGUCACGUAUGGAACG", "note": "[C4G G41U C61A C66U]", "yeast fitness": "≤ 0.5"}, {"variant": "GUUCCGUUGGCGUAAUGGUAACGCGUCUCCCUGCUAAGGAGAAGACUGCGGGUUCGAGACGCGUACGGAACG", "note": "[C33G U59A C61G]", "yeast fitness": "≤ 0.5"}, {"variant": "GUUUCGUAGGCGCAAUGGUAACGCGUCUCCCUCCUAAGGAGAAGACUGCGGGUUCGCGUCCCGUACGGAACG", "note": "[C4U U8A U13C A57C]", "yeast fitness": "≤ 0.5"}, {"variant": "GAUCCGUUGGCGUAAUGGUAACGCGGGUCCCUUCUAAGCAGAAGACUGUGGGUUCGAGUCCCGUACGGAACG", "note": "[U2A U26G C27G C33U G39C C49U]", "yeast fitness": "≤ 0.5"}, {"variant": "GUUCAGUUGGCGUAAUGGUAACGCGUCUCCCUACUAAGCAGAAGACUGUGGGUACGAGUCCCGUACGGAUCG", "note": "[C5A C33A G39C C49U U54A A70U]", "yeast fitness": "≤ 0.5"}, {"variant": "GUUCGGUUGGCGCAAUGGUACCGCGUCUCCCUCCUAAGGAGAAGACUGCGGGUUCGAGUCCCGUACGGACCG", "note": "[C5G U13C A21C A70C]", "yeast fitness": "≤ 0.5"}, {"variant": "GUUCCGGUGACGUAAUGGUAACGCGUUUCCAUCCUAAGGAGAAGACUGCGGGCUCGAGUCCCGUACGGAACG", "note": "[U7G G10A C27U C31A U53C]", "yeast fitness": "≤ 0.5"}, {"variant": "GUUCCGUUGGCGUAAUGGUUACGCGUCUCCCUCCUAAGGGGAAGACUGCGGGUCCGAGUCCCGUACGGAACG", "note": "[A20U A40G U54C]", "yeast fitness": "≤ 0.5"}, {"variant": "GUUCCGUUGGCGUAAUGGUAACGCGUCUCCCUCCUAUGGCGGAGACUGCGGGUUCGAGUCCUGUACGGAACG", "note": "[A37U A40C A42G C62U]", "yeast fitness": "≤ 0.5"}, {"variant": "GUUCUGUUGGCGAAAUGGUAACGCGUCUCCCUCCUAAGGAGUAGAUUGCGGGUUCGAGUCCUGUACGGAACG", "note": "[C5U U13A A42U C46U C62U]", "yeast fitness": "≤ 0.5"}, {"variant": "GUUCCGUUGGAGUGAUGGUAACGCGUCUCUCUCCUAAGGAGAAGACUGGGGGUUCGAGUCCCGUACCGAACG", "note": "[C11A A14G C30U C49G G67C]", "yeast fitness": "≤ 0.5"}, {"variant": "GUUCCGUUGGCGUUAUGGUAACGCGCCUCCCUCCUAAGGAGACGAAUGCGGGUUCGAGUCCCGUACGGAACG", "note": "[A14U U26C A43C C46A]", "yeast fitness": "≤ 0.5"}, {"variant": "GUUCCGUUGGCGAAAUGGUAACGCGUCCCCCUCCUAAGGAGAAGACUGCGAGUUCGAGUCCCGUACGGCACG", "note": "[U13A U28C G51A A69C]", "yeast fitness": "≤ 0.5"}, {"variant": "GUUCCGUUGGCGUACUGGUAACGCGUCUCCCUCCUAAGGCGAAGACUGCGGGUCCGAGUCCCGUACGGAACG", "note": "[A15C A40C U54C]", "yeast fitness": "≤ 0.5"}]}]}
